The test deals with Flag-tagged ADAM9 (disintegrin and metalloproteinase domain-containing protein 9) (human) (UniProt Q13443). In words: co-IP; Myc-tagged USP39 and Flag-tagged ADAM9 co-transfected with or without HA-tagged Ub into HEK293T cells; which protein was precipitated not given.

Protein sequences, listed by entry. Tags and fused reporters are not part of them. Residues count along the entry.
UniProt Q13443, residues 29-819: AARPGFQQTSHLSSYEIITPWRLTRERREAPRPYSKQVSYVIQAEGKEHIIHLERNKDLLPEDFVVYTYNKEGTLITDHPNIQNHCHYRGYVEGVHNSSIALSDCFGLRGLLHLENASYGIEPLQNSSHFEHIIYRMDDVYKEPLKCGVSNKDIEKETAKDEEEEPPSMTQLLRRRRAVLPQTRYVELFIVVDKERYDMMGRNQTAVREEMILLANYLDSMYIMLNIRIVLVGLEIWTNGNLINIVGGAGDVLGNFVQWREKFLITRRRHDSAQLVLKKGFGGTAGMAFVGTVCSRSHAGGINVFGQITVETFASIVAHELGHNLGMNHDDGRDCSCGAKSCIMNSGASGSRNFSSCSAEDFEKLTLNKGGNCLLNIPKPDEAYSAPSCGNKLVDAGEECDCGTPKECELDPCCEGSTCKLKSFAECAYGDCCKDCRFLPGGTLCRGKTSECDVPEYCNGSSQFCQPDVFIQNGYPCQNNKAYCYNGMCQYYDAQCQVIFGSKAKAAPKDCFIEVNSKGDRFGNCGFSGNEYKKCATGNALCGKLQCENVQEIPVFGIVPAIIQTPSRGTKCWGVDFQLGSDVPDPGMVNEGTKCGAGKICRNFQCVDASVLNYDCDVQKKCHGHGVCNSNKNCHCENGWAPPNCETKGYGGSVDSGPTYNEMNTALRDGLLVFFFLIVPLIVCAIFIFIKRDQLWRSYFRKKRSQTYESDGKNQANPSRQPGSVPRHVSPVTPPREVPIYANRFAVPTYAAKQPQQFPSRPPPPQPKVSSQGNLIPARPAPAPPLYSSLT

Results are given in words; binding and its absence hold for the method and conditions named. Binding seen in cells or lysates may run through a third protein. Tags and fused reporters may be left off the sequences shown.

B1: Myc-tagged USP39 (ubiquitin-specific peptidase 39) (protein, UniProt Q53GS9 1-565)
chain: MSGRSKRESRGSTRGKRESESRGSSGRVKRERDREREPEAASSRGSPVRVKREFEPASAREAPASVVPFVRVKREREVDEDSEPEREVRAKNGRVDSEDRRSRHCPYLDTINRSVLDFDFEKLCSISLSHINAYACLVCGKYFQGRGLKSHAYIHSVQFSHHVFLNLHTLKFYCLPDNYEIIDSSLEDITYVLKPTFTKQQIANLDKQAKLSRAYDGTTYLPGIVGLNNIKANDYANAVLQALSNVPPLRNYFLEEDNYKNIKRPPGDIMFLLVQRFGELMRKLWNPRNFKAHVSPHEMLQAVVLCSKKTFQITKQGDGVDFLSWFLNALHSALGGTKKKKKTIVTDVFQGSMRIFTKKLPHPDLPAEEKEQLLHNDEYQETMVESTFMYLTLDLPTAPLYKDEKEQLIIPQVPLFNILAKFNGITEKEYKTYKENFLKRFQLTKLPPYLIFCIKRFTKNNFFVEKNPTIVNFPITNVDLREYLSEEVQAVHKNTTYDLIANIVHDGKPSEGSYRIHVLHHGTGKWYELQDLQVTDILPQMITLSEAYIQIWKRRDNDETNQQGA
On to B1, for which the binding result is listed as “no binding”.

Source of the values: PMC8763660.
